Data from publication PMC3858372, “Cell Cycle-Dependent Turnover of 5-Hydroxymethyl Cytosine in Mouse Embryonic Stem Cells”.
The comparison behind a weaker result is the experiment's own reference, which may not be listed here. Protein sequences can lack the tags named with them. For part of these data: Construct, isoform or probe ends are uncertain for at least one entry. For part of these data: At least one verdict was read from the data and is not stated in words by the source.

Key:
[1] = target: T1, Uhrf1 (Np95) SRA domain (mouse) (UniProt Q8VDF2); experiment: competition with a labelled probe; details: 5 uM SRA, 1 uM 32P-CG/5mCG, EMSA/competition: 25 mM HEPES-NaOH pH 7.4, 0.1 M NaCl, 0.1 mM TCEP, 250 ng poly(dI-dC)(dI-dC), 4 C, 30 min, 7.5% native PAGE in 1x TBE, recombinant protein, residues 405-613
T1 sequence (looked up): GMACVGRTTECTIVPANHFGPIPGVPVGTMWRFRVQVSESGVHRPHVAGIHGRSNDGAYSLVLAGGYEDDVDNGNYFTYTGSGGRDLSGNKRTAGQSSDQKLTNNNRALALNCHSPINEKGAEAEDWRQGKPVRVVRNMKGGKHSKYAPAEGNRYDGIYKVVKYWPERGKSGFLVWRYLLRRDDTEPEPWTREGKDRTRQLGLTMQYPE

[2] = target: T1, Uhrf1 (Np95) SRA domain (mouse); experiment: EMSA; details: 0-3 uM SRA, 1 uM DNA, 250 ng poly(dI-dC), affinity lower than for CG/5mCG; 5hmC at position 7 of strand 2 (GCAATCXGGTAG, X = 5hmC); EMSA/competition: 25 mM HEPES-NaOH pH 7.4, 0.1 M NaCl, 0.1 mM TCEP, 250 ng poly(dI-dC)(dI-dC), 4 C, 30 min; 7.5% native PAGE in 1x TBE; recombinant protein; residues 405-613

Sequence: CTACCGGATTGC (double strand) [CG/5mCG (hemi-methylated 12-bp)]
- binding result ([1]; 0-10 uM unlabelled CG/5mCG, 5mC at position 7 of strand 2 (GCAATCXGGTAG, X = 5mC)): binds

Sequence: CTACCGGATTGC (double strand) [CG/5hmCG (hemi-hydroxymethylated 12-bp)]
- binding result [2]: binds more weakly
- binding result ([1]; 0-10 uM unlabelled CG/5hmCG, excess could not effectively compete, 5hmC at position 7 of strand 2 (GCAATCXGGTAG, X = 5hmC)): binds more weakly
